In article PMC4664969 one finds binding data, which are given here for one substance.

These are yes or no findings as the source states them, for the method shown. Binding seen in cells or lysates may run through a third protein. Binding calls can cover weak binding; strength is not graded here. Where a sequence is shown, tags or fusion partners need not be part of it.

For this assay, the target named is T1, Myc-tagged glucokinase regulatory protein (GKRP), wild type (human) (UniProt Q14397).
T1 sequence: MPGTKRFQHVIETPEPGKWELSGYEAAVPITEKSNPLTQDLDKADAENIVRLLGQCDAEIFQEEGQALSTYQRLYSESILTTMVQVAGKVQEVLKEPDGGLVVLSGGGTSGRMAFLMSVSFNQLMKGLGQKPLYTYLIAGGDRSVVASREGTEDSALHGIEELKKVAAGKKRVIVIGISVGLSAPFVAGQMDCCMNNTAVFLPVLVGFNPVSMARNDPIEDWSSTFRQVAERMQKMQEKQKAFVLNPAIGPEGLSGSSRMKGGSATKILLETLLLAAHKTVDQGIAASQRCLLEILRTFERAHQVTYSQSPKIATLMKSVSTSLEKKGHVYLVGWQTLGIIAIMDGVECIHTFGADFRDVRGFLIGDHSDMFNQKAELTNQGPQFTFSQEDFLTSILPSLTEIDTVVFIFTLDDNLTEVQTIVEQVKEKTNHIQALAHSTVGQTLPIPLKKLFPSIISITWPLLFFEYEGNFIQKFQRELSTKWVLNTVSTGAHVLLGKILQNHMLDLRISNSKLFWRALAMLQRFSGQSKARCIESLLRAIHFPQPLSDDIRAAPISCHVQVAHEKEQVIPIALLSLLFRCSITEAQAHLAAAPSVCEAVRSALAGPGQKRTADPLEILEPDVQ
In words: co-IP; HeLa cells cotransfected with the expression plasmids, lysed after 36 h (20 mM HEPES pH 7.4, 0.5% NP-40, 150 mM NaCl, 0.25% deoxycholate, 1 mM EDTA, TSA, NAM); 1 ug antibody overnight, protein G agarose 2 h at 4 C; immunoblot (GK-GKRP: IP anti-Myc or anti-V5, blot anti-His or anti-Myc).

On to FLAG-tagged SIRT3 (enzyme), for which the binding result was “binds”.
